Results: paper PMC10602860
No constants are given. Whether binding was seen depends on the method and setting. Some entries that bind do so weakly or less than the wild type.

Amino acid sequences for entries named in this document (tags omitted).
UniProt P46959: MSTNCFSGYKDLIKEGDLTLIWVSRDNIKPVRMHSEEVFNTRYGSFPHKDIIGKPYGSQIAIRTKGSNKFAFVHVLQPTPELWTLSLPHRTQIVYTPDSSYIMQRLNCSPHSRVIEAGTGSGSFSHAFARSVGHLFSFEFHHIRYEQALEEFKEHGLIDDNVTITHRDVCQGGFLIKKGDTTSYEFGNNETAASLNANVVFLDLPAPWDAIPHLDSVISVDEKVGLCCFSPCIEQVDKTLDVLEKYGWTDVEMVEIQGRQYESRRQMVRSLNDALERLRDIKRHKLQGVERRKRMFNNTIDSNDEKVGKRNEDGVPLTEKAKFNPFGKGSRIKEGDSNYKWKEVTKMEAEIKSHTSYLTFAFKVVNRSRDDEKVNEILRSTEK

Biological target: T1, yeast Trm6 (subunit of the Trm6/Trm61 heterodimer) (S. cerevisiae) (UniProt P41814)
T1 sequence: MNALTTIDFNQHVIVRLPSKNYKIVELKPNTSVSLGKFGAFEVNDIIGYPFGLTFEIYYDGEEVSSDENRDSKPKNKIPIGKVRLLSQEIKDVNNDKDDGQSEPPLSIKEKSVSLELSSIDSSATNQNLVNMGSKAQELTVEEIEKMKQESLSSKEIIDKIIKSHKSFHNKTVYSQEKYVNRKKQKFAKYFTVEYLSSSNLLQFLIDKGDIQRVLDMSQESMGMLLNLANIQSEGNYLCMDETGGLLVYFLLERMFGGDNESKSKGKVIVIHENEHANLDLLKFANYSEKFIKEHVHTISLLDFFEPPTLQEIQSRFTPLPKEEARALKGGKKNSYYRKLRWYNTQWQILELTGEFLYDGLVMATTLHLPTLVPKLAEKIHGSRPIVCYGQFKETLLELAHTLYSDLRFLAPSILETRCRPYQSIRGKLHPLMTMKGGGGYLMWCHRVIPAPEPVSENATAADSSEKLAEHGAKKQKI
Experiment: co-purification (Ni-NTA, then hydrophobic and/or size exclusion chromatography); Trm6 and Trm61 co-expressed in E. coli from pETDuet-1, His6 tag on Trm6 only; lysate supernatant loaded on a Ni-NTA column, imidazole gradient, further chromatography at 4°C

yeast Trm61 (subunit of the Trm6/Trm61 heterodimer) (from UniProt P46959 1-383) (enzyme)
binding: binds
